Test results published in patent US12622910B2, “Inhibitors of Bruton's tyrosine kinase and methods of their use” (Janssen Pharmaceutica NV, priority 2021, dated 2026).

Experiment: Caco-2 permeability
Assay type: in vitro ADME
Settings: human

**Q.** For `CC(C)NCC(O)COc1ccc(CC(N)=O)cc1` (stereo not drawn) [Atenolol], which efflux ratio at 5 μM (Caco-2, read-out: Efflux Ratio (BA/AB)) is on record?
**A.** 1.5

**Q.** What about the Papp A→B at 5 μM (Caco-2, 5 μM) of the same compound?
**A.** 0.317 ×10⁻⁶ cm/s

**Q.** What about the Papp B→A at 5 μM (Caco-2, 5 μM) of the same compound?
**A.** 0.477 ×10⁻⁶ cm/s
